Measurements as given in PMC3525598.
No constants are given. Whether binding was seen depends on the method and setting. Binding seen in cells or lysates may run through a third protein. Some results given as binding are weak or reduced against the parent protein; the word gives no strength. For some of these results: Where a sequence is shown, tags or fusion partners need not be part of it.

Protein sequences, listed by entry. Tags and fused reporters are not part of them.
UniProt Q969Q4: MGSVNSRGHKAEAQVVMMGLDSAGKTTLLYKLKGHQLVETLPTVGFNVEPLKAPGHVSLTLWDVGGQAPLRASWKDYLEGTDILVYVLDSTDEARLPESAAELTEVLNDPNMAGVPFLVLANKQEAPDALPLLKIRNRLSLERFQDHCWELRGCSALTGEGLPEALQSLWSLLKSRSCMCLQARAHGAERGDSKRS
UniProt P18669: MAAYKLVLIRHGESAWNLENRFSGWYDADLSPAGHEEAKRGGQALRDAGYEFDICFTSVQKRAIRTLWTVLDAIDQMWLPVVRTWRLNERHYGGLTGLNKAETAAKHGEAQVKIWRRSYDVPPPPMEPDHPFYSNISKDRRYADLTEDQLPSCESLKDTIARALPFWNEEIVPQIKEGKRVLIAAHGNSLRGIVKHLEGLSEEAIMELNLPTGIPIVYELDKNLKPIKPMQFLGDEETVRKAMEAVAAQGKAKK

T1: HA-tagged CRABP2 (human) (UniProt P29373)
T1 sequence: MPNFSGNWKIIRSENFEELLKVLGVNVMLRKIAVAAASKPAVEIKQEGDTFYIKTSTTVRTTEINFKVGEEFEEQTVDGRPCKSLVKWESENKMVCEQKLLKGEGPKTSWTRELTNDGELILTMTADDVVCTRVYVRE


Experiments:
[1] = molecular target: HA-tagged ARL11 (human) (UniProt Q969Q4); test: co-IP; HEK-293T cells co-transfected; lysed by sonication in 137 mM NaCl, 10 mM phosphate, 2.7 mM KCl with protease inhibitors; anti-HA antibody agarose beads, 4°C for 5 hours, washed thrice; western blot for the partner
[2] = molecular target: ARL11-YFP2 (ras-related ADP-ribosylation factor-like 11 fused to yellow fluorescent protein fragment 2 at its C-terminus) (human) (UniProt Q969Q4); test: split reporter; YFP protein complementation with single constructs: HEK-293T cells on cover slips co-transfected with the YFP1-tagged protein and ARL11-YFP2; fixed after 24 hours, DAPI, confocal microscopy
[3] = molecular target: ARL11-YFP2 (ras-related ADP-ribosylation factor-like 11 fused to yellow fluorescent protein fragment 2 at its C-terminus) (human) (UniProt Q969Q4); test: split reporter; YFP protein complementation screen: HEK-293T cells co-transfected with the YFP1-tagged in-frame cDNA library (prey) and ARL11-YFP2 (bait); brightest about 1% of fluorescent cells sorted after 24 hours; plasmids from single colonies co-transfected again with ARL11-YFP2 to confirm fluorescence, then sequenced
[4] = molecular target: T1, HA-tagged CRABP2 (human); test: co-IP; HEK-293T cells co-transfected; lysed by sonication in 137 mM NaCl, 10 mM phosphate, 2.7 mM KCl with protease inhibitors; anti-HA antibody agarose beads, 4°C for 5 hours, washed thrice; western blot for the partner
[5] = molecular target: HA-tagged PGAM1 (human) (UniProt P18669); test: as above
[6] = molecular target: ARL11-YFP2 (ras-related ADP-ribosylation factor-like 11 fused to yellow fluorescent protein fragment 2 at its C-terminus) (human) (UniProt Q969Q4); test: split reporter; YFP protein complementation screen: HEK-293T cells co-transfected with the YFP1-tagged in-frame cDNA library (prey) and ARL11-YFP2 (bait); brightest about 1% of fluorescent cells sorted after 24 hours; plasmids from single colonies co-transfected again with ARL11-YFP2 to confirm fluorescence, then sequenced; remark: listed apart in the source

| Molecule | binding [1] | binding [2] | other results |
| --- | --- | --- | --- |
| FLAG-tagged PGAM1 (from UniProt P18669 1-254) (enzyme) | binds |  |  |
| YFP1-PGAM1 (phosphoglycerate mutase 1 with N-terminal yellow fluorescent protein fragment 1, construct without 5′-UTR) (from UniProt P18669 1-254) (enzyme) | binds | binds | binding [3]: binds |
| FLAG-tagged ARL11 (from UniProt Q969Q4 1-196) |  |  | binding [4]: binds; binding [5]: binds |

Now from value to molecule, other results behind:

| binding [1] | binding [2] | Molecule | other results |
| --- | --- | --- | --- |
| binds | binds | YFP1-CRABP2 (cellular retinoic acid binding protein 2 with N-terminal yellow fluorescent protein fragment 1, construct without 5′-UTR) (protein, UniProt P29373 1-138) MPNFSGNWKIIRSENFEELLKVLGVNVMLRKIAVAAASKPAVEIKQEGDTFYIKTSTTVRTTEINFKVGEEFEEQTVDGRPCKSLVKWESENKMVCEQKLLKGEGPKTSWTRELTNDGELILTMTADDVVCTRVYVRE | binding [6]: binds |
| binds |  | FLAG-tagged CRABP2 (construct without its 5′-UTR) (protein, UniProt P29373 1-138) MPNFSGNWKIIRSENFEELLKVLGVNVMLRKIAVAAASKPAVEIKQEGDTFYIKTSTTVRTTEINFKVGEEFEEQTVDGRPCKSLVKWESENKMVCEQKLLKGEGPKTSWTRELTNDGELILTMTADDVVCTRVYVRE |  |
